Experimental data published in patent US20230322935A1 (published 2023).
No constants are given. Whether binding was seen depends on the method and setting. Some binding calls cover weakened binding; strength is not graded here. For some of these results: Where a sequence is shown, tags or fusion partners need not be part of it.

Chains of the proteins cited; added tags and fusions are not shown. Lines headed by an entry give the natural chain unless they say otherwise; changes in a name come on top. Residues count along the entry.
UniProt Q9NPY3: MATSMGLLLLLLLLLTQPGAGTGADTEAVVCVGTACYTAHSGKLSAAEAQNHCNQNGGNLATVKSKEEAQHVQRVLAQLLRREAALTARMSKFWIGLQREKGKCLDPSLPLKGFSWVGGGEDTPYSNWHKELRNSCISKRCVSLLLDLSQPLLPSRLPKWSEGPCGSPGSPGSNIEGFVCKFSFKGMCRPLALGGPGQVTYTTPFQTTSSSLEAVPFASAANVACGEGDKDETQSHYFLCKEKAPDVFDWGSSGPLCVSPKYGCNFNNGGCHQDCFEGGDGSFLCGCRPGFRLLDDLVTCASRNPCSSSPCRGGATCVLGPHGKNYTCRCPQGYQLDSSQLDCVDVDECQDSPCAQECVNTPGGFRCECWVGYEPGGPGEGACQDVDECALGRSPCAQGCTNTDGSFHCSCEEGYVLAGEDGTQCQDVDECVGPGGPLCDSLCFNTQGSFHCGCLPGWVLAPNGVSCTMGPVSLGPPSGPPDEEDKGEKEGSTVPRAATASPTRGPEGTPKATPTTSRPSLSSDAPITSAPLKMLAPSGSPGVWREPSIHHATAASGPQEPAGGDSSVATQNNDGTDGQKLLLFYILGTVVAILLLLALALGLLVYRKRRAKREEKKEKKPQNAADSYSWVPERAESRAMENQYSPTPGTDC
Human CD93 on the cell surface (human CD93 expressing CHO cells; HUVEC, U937 and KG1a cells): residues 22-652 of Q9NPY3
Human CD93 recombinant protein (Sino Biological Inc, Catalog #12589-H08H): residues 22-580 of Q9NPY3

Key:
[1] = target: His-tagged human CD93 (human) (UniProt Q9NPY3); test: ELISA, His-tagged human CD93 coated at 1 µg/mL, anti-human Fc-HRP
[2] = target: cynomolgus CD93 protein (made in-house) (cynomolgus); test: summary table, Cyno Cross (ELISA)
[3] = target: His-tagged human CD93 (human) (UniProt Q9NPY3); test: ELISA, His-tagged human CD93 coated at 1 µg/mL, anti-mouse Fc-HRP
[4] = target: cynomolgus CD93 protein (made in-house) (cynomolgus); test: BLI (Octet), biotinylated CD93 on streptavidin sensors
[5] = target: cynomolgus CD93 protein (made in-house) (cynomolgus); test: BLI (Octet), biotinylated cynomolgus CD93 on streptavidin sensors
[6] = target: His-tagged human CD93 (human) (UniProt Q9NPY3); test: ELISA, His-tagged human CD93 coated at 1 µg/mL
[7] = target: Human CD93 on the cell surface (human CD93 expressing CHO cells; HUVEC, U937 and KG1a cells) (human) (UniProt Q9NPY3); test: FACS on HUVEC cells; antibody fresh or stored at 40 C for 2 or 4 weeks
[8] = target: Human CD93 recombinant protein (Sino Biological Inc, Catalog #12589-H08H) (human) (UniProt Q9NPY3); test: BLI (Octet), biotinylated human CD93 on streptavidin sensors
[9] = target: Human CD93 on the cell surface (human CD93 expressing CHO cells; HUVEC, U937 and KG1a cells) (human) (UniProt Q9NPY3); test: FACS on KG1a cells; antibody fresh or stored at 40 C for 2 or 4 weeks
[10] = target: Human CD93 on the cell surface (human CD93 expressing CHO cells; HUVEC, U937 and KG1a cells) (human) (UniProt Q9NPY3); test: FACS on human CD93 expressing CHO cells; antibody fresh or stored at 40 C for 2 or 4 weeks

| Binder | binding [2] | binding [5] | also measured |
| --- | --- | --- | --- |
| 7F3-hIgG1 (recombinant chimeric 7F3) (antibody, V domains shown) VH: QVQLQQSGADLVRPGASVKLSCKASGYTFTDYEMHWVKQTPVYGLEWIGGIDPETGDTAYNQNFKGKATLTADKSSSAAYMELRSLTSEDSAVYYCTNYGNLYYYAMDYWGQGTSVTVSS VL: ENVLTQSPAIMSASPGEKVTMTCRASSSVSSSYLHWYQQKSGASPKLWIYSTSNLAFGVPARFSGSGSGTSYSLTISSVEAEDAATYYCQQYSGYPLTFGSGTKLEIK | – | – | binding [1]: binds |
| 7F3 (mouse anti-human CD93 hybridoma antibody) (antibody, IgG1, V domains shown) VH: QVQLQQSGADLVRPGASVKLSCKASGYTFTDYEMHWVKQTPVYGLEWIGGIDPETGDTAYNQNFKGKATLTADKSSSAAYMELRSLTSEDSAVYYCTNYGNLYYYAMDYWGQGTSVTVSS VL: ENVLTQSPAIMSASPGEKVTMTCRASSSVSSSYLHWYQQKSGASPKLWIYSTSNLAFGVPARFSGSGSGTSYSLTISSVEAEDAATYYCQQYSGYPLTFGSGTKLEIK | binds | – | binding [3]: binds; binding [4]: binds |
| 17B10 (mouse anti-human CD93 hybridoma antibody) (antibody, V domains shown) VH: QVQLQQSGPELVKPGASVKISCKASGYAFSSYWLNWVKQRPGKGLEWFGRIYPGDGDTDYNGKFKGKATLTADKSSSTAYMQLRSLTSEDSAVYFCVRGDGYWAMDYWGQGTSVTVSS VL: DIVMTQAAFSNPVTLGTSASISCRFSKSLLHSNGITYLYWYLQKPGQSPQLLIYQMSNLASGVPDRFSSSGSGTDFTLRISRVEAEDVGVYYCAQNLELPWTFGGGTKLEIK | binds | binds | binding [6]: binds |
| Humanized 17B10 (VH3VL3, i.e., H3L3), chimeric Fc with mouse IgG1 CH2 and CH3 domains and human CH1 (antibody, V domains shown) VH: QVQLVQSGPEVKKPGESLKISCKASGYAFSSYWLNWVRQMPGKGLEWMGRIYPGDGDTDYNGKFKGQVTISADKSSGTAYLQLSSLKASDTAVYFCVRGDGYWAMDYWGQGTLVTVSS VL: DIVMTQSPDSLAVSLGERATINCRFSKSLLHSNGITYLYWYQQKPGQPPKLLIYQMSNLASGVPDRFSGSGSGTDFTLTISSLQAEDVAVYYCAQNLELPWTFGGGTKLEIK | – | – | binding [3]: binds; binding [6]: binds |
| recombinant parental 17B10-hFc (17B10-hIgG1) (antibody, V domains shown) VH: QVQLQQSGPELVKPGASVKISCKASGYAFSSYWLNWVKQRPGKGLEWFGRIYPGDGDTDYNGKFKGKATLTADKSSSTAYMQLRSLTSEDSAVYFCVRGDGYWAMDYWGQGTSVTVSS VL: DIVMTQAAFSNPVTLGTSASISCRFSKSLLHSNGITYLYWYLQKPGQSPQLLIYQMSNLASGVPDRFSSSGSGTDFTLRISRVEAEDVGVYYCAQNLELPWTFGGGTKLEIK | – | – | binding [6]: binds |
| h7F3 (humanized 7F3, VH3+VL3) (antibody, V domains shown) VH: QVQLVQSGAEVKKPGASVKVSCKASGYTFTDYEMHWVRQAPGQGLEWMGGIDPETGDTAYNQNFKGRVTMTTDTSTSTAYMELRSLTSDDTAVYYCTNYGNLYYYAMDYWGQGTSVTVSS VL: EIVLTQSPSSLSASVGDRVTITCRASSSVSSSYLHWYQQKPGKAPKLLIYSTSNLAFGVPSRFSGSGSGTSYTFTISSLQPEDIATYYCQQYSGYPLTFGSGTKLEIK | – | – | binding [7]: binds; binding [8]: binds; binding [9]: binds; binding [10]: binds |
| h16E4 (humanized 16E4, VH4+VL6) (antibody, V domains shown) VH: QVQLVQSGAEVKKPGASVKVSCKASGYTFTSYWMHWVRQAPGQGLEWMGEIDPSASYTYYNQKFKGRVTMTRDKSSSTVYMELSSLTSEDSAVYYCARSVYYGNKYFDVWGAGTTVTVSS VL: DIQMTQSPSTLSASVGDRVTITCKASQSVDYAGDSYMNWYQQKPGKAPKLLIYAASNLESGVPSRFSGSGSGTEFTLTISSLQPDDFATYYCQQTNEDPRTFGGGTKLEIK | – | – | binding [8]: binds; binding [9]: binds; binding [10]: binds |
| 5H9 (mouse anti-human CD93 hybridoma antibody) (antibody, IgG2a, V domains shown) VH: QVQLQQSGPDLVKPGASVKISCKASGYAFSTYWMNWVKQRPGKGLEWIGRIFPGDGDANYNGKFKGKATLTADKSSSTAYMQLSSLTSEDSAVYFCTRTGAAYDFDPFPYWGQGTLVTVSA VL: DIVMTQAAFSNPVTLGTSASISCSSSKSLLHSNGVTYLYWYLQRPGQSPQLLIYRMSNLASGVPDRFSGSGSGTDFTLRISRVEAEDVGIYYCAQMLERPFTFGSGTKLEIK | binds | binds | – |
| 12H4 (mouse anti-human CD93 hybridoma antibody) (antibody, V domains shown) VH: EVQLQQSGPELVKPGASVKVSCKASGYTFTDYYIHWVKQRPGQGLEWIGEIYPGSDDAYYNEKFKGKATLTADKSSSTAYMQLSSLTSEDSAVYFCTRETTATAYWGQGTLVTVSA VL: QIVLTQSPAIMSASPGEKVTITCSASSSVSLIYWFQQKPGTSPKLWIYSTSNLASGVPARFSGSGSGTSYSLTISRMEAEDAATYYCQQRSGYPPTFGGGTKLEIK | binds | binds | – |
| 16B6 (mouse anti-human CD93 hybridoma antibody) (antibody, V domains shown) VH: QVQLQQSGPELVKPGASVKISCKASGYAFSRSWMNWVKQRPGKGLEWIGWIYPGDGDTNYNGKFKGKATLTADKSSSTAYMQLSSLTSEDSAAYFCARSATLPYWYFDVWGAGTTVTVSS VL: DIKMTQSPSSMYASLGERVTITCKASQDIKSYLSWYQQKPWKSPKTLIYYATNLADGVPSRFSGSGSGQDYSLTISSLGSDDTATYYCLQHVESPWTFGGGTKLEIK | binds | binds | – |
| 16G9 (mouse anti-human CD93 hybridoma antibody) (antibody, V domains shown) VH: EVQLQQSGPELVKPGASVKMSCKASGYTFTDYYMNWVKQSHGKSLEWIGRVNPNNGGKTYNQKFKGKATLTVDKSLSTAYMQLNSLTSEDSAVYYCARWRLRPVDYGMDYWGQGTSVTVSS VL: DIVLTQSPASLAVSLGQRATISCRASQSVSTSSYSYMHWYQQKPGQPPKLLIKYASNLESGVPARFSGSGSGTDFTLNIHPVEEEDTATYYCQHSWEIPFTFGSGTKLEIK | binds | binds | – |
| 17A7 (mouse anti-human CD93 hybridoma antibody) (antibody, V domains shown) VH: QVQLQQSGPELVKPGASVKISCKGSGYAFSTYWMNWVKQRPGKGLEWIGRIFPGDGDTDYDGKFKGKATLTADKSSNTAYMQLSSLTSEDSAVYFCARTGAAYEFDPFPYWGQGTLVTVSA VL: DIVMTQAAFSNPVTLGTSASISCSSTKSLLHSSGITYLYWYLQRPGQSPQLLIYRMSNLASGVPDRFSGSGSGTDFTLRISRVEAEDVGVYYCAQMLERPFTFGSGTKLEIK | binds | binds | – |
| 17E6 (mouse anti-human CD93 hybridoma antibody) (antibody, V domains shown) VH: EVQLQQSGPELVKPGASVKMSCKASGYTFTSYVIHWVKQKPGQGLEWIGYINPYSDYTQYNEKFKGKATLTSDKSSSTAYMELSSLTSEDSAVYSCARRADGNPYAMDYWGQGTSVTVSS VL: DIVMTQSHKFMSTSVGDRVSTTCKASQDVSTAVVWYQQKPGQSPKLLIYSASYRYTGVPDRFTGSGSGTDFTFTITSVQAEDLAVYYCQQHYSTPFTFGSGTKLEIK | binds | binds | – |
| 19B5 (mouse anti-human CD93 hybridoma antibody) (antibody, V domains shown) VH: DVNLVESGGGLVKLGGSLKLSCAASGFTFSNYYMSWVRQSPEKRLEWVATISNNGDSTYYLDTVKGRFTISRDSAENTLYLQMSSLISEDTAVYYCTRVGTGFTYWGQGTLVTVSA VL: DIVLTQSPATLSVTPGDSVSLSCRASQSINNYLHWYQQRSHESPRLLIKFASQSISDIPSRFSGSGSGTDFTLSINSIETEDFGMYFCQQSNSWPLTFGAGTKLELK | binds | binds | – |
| 19E12 (mouse anti-human CD93 hybridoma antibody) (antibody, V domains shown) VH: QVQLQQSGAELVRPGASVKLSCKASGYTFTDYEMHWVRQTPVHGLEWIGGIDPETGGTAYNQKFKGKATLTADKSSSTAYMELRSLTSEDSAVYYCTRGAWFAYWGQGTLVTVSA VL: QAVVTQESALTTSPGETVTLTCRSSTGAVTTSNSANWVQEKPDHLFTGLIGGTNNRAPGVPARFSGSLIGDKAALTITGAQTEDEAIYFCALWYNNHFVFGGGTKLTVL | binds | binds | – |
| 20C7 (mouse anti-human CD93 hybridoma antibody) (antibody, V domains shown) VH: EVQLQQSGPELVNPGASVKMSCKASGYTFTAYVMHWVKQKPGQGLEWIGYIFPYNDGTEYNEKFKGKATLTSDKSSSTAYMELSSLTSEDSAVYYCARRTDGNPYTMDYWGQGTSVTVSS VL: DIVMTQSHKFMSTSVGDRVSITCKASQDVSTAVAWYQQKPGQSPKLLIHSASYRYTGVPDRFTGRGSGTDFTFTISSVQAEDLAVYYCQQHYSTPFTFGSGTKLEIK | binds | binds | – |
| 10B1 (mouse anti-human CD93 hybridoma antibody) (antibody, V domains shown) VH: QVQLKQSGPGLVQPSQSLSITCTVSDFSLSSFGVNWVRQPPGKGLEWLGVIWSGGSTDYNVAFISRLSISKDNSKSQVFFKMNNLQADDTAIYYCARNWRYDGYFYAMDYWGQGTSVTVSS VL: DIVMTQSQKFMSTSTGDRVSVTCKASQNVGTNVAWYQQKPGQSPKALIYSASYRFIGVPDRFTGSGSGTDFTLTITNVQSEDLAEYFCQQYNRNPITFGSGTKLEIK | binds | – | binding [4]: binds |
